Measurements: US12006503B2, “Fusion proteins and methods thereof” (The Trustees of Columbia University in the City of New York, priority 2012, dated 2024)
Some results were stated once for a whole list of compounds, not compound by compound.

System: cells transduced with vector, FGFR3, TACC3 and the FGFR3-TACC3-K508M mutant
Test: MTT growth assay of control Rat1A cells treated with FGFR inhibitors
Assay type: cell-based, rat

With `CCN1CCN(c2ccc(Nc3cc(N(C)C(=O)Nc4c(Cl)c(OC)cc(OC)c4Cl)ncn3)cc2)CC1` [BGJ398, 3-(2,6-dichloro-3,5-dimethoxy-phenyl)-1-{6-[4-(4-ethyl-piperazin-1-yl)-phenylamino]-pyrimidin-4-yl}-1-methyl-urea] the “concentration up to which ineffective on cell growth” value was > 1 µM.

In the case of `CCN(CC)CCCCNc1ncc2cc(-c3cc(OC)cc(OC)c3)c(NC(=O)NC(C)(C)C)nc2n1` [PD173074], the “concentration up to which ineffective on cell growth” value was > 1 µM.
